Source: PubChem BioAssay AID686938 (Drosophila RNAi Screening Center, 2013)
The deposit covers about 23,000 reagents; this is a random part of those that have a named target and a result. Of all reagents, 75 (0.33%) are marked active. 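Raw plate signals without normalisation; calls rest on plate z-scores that were not deposited; ratio present for only 364 wells.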 Entries without a mark were called inactive. A plus sign joins genes that one reagent is predicted to hit. Not given: the dose of the treatment.

Assay: 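Fly genes required for calcium entry once internal stores are emptied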 (primary screen)
Cells: Drosophila S2R+ cells
Reagents: long dsRNA against Drosophila genes, about 0.25 µg dsRNA per well, roughly 10,000 cells
Time to read-out: 5 days of knock-down before the calcium assay
Treatment: thapsigargin (SERCA pump blocker) to empty calcium stores; entry signal taken 4 min after adding it
Detection: 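Duplicate raw fluo-4 intensities per well from a plate reader, at rest and four minutes after thapsigargin emptied calcium stores; entry-to-rest ratio filled for only some wells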
Direction: calcium entry signal: higher = stronger calcium signal after store depletion; entry to resting ratio: higher = more calcium entry relative to resting level; resting calcium signal: higher = higher resting calcium signal
Active means: 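Called when the plate z-score of the entry-to-rest ratio, mean of duplicates, falls below −3; wells with low overall dye signal (Fmax z below −2) or more than five off-targets excluded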
Calls: active = strongly reduced calcium entry; inactive = no strong reduction

| gene | PubChem SID | calcium entry signal, replicate 1 (fluorescence units) | calcium entry signal, replicate 2 (fluorescence units) | entry to resting ratio | resting calcium signal, replicate 1 (fluorescence units) | resting calcium signal, replicate 2 (fluorescence units) |
| --- | --- | --- | --- | --- | --- | --- |
| CG9588 | SID104196296 | 3.25e7 | 5.35e7 | – | 1.65e7 | 6.36e7 |
| Cyp4g1 (Cytochrome P450 4g1) | SID104198251 | 3.43e7 | 4.26e7 | – | 1.67e7 | 1.94e7 |
| PpN58A (Protein phosphatase N at 58A) | SID104184434 | 3.14e7 | – | – | 1.57e7 | – |
| CG34241 | SID104188949 | 5.68e7 | 5.17e7 | – | 2.80e7 | 2.34e7 |
| Mgat3 | SID104181097 | 4.86e7 | 5.30e7 | – | 2.34e7 | 2.49e7 |
| Adi1 (Acireductone dioxygenase 1) | SID104190737 | 2.38e7 | 3.07e7 | – | 1.29e7 | 1.35e7 |
| Adi1 (Acireductone dioxygenase 1) | SID104201215 | 2.49e7 | 3.54e7 | – | 1.21e7 | 1.54e7 |
| Lon (Lon protease) | SID104190841 | 2.34e7 | 3.54e7 | – | 1.11e7 | 2.51e7 |
| Nmd3 (Nonsense-mediated mRNA 3) | SID104198479 | 2.73e7 | 4.67e7 | – | 1.40e7 | 1.98e7 |
| Nmd3 (Nonsense-mediated mRNA 3) | SID104202193 | 2.63e7 | 4.00e7 | – | 1.44e7 | 1.97e7 |
| pinta | SID104194490 | 3.40e7 | 3.33e7 | – | 1.61e7 | 1.50e7 |
| Obp18a (Odorant-binding protein 18a) | SID104199528 | 5.61e7 | 5.03e7 | – | 2.51e7 | 2.00e7 |
| Rh6 (Rhodopsin 6) | SID104196615 | 2.36e7 | 2.53e7 | – | 1.20e7 | 3.31e7 |
| CG18764 | SID104195183 | 3.86e7 | 3.61e7 | – | 1.91e7 | 1.78e7 |
| Fitm (Fat storage inducing transmembrane protein) | SID104189564 | 5.95e7 | 4.32e7 | – | 3.75e7 | 1.74e7 |
| Map60 (Microtubule-associated protein 60) | SID104187256 | 3.71e7 | 3.00e7 | – | 1.64e7 | 1.49e7 |
| CG2871 | SID104198022 | 3.06e7 | 5.02e7 | – | 1.49e7 | 2.30e7 |
| CG2871 | SID104201392 | 2.78e7 | 3.01e7 | – | 1.42e7 | 1.38e7 |
| Cpr72Ea (Cuticular protein 72Ea) | SID104190243 | 4.14e7 | 4.92e7 | – | 1.89e7 | 3.36e7 |
| CG15909 | SID104184769 | 4.09e7 | 5.23e7 | – | 2.07e7 | 2.27e7 |
| Tet (Ten-Eleven Translocation (TET) family protein) | SID104187798 | 4.29e7 | 4.14e7 | – | 2.32e7 | 1.94e7 |
| Tet (Ten-Eleven Translocation (TET) family protein) | SID104188342 | 4.73e7 | 4.04e7 | – | 2.46e7 | 1.82e7 |
| Tet (Ten-Eleven Translocation (TET) family protein) | SID104188438 | 3.94e7 | 3.95e7 | – | 1.94e7 | 1.79e7 |
| Ilp4 (Insulin-like peptide 4) | SID104190493 | 3.38e7 | 5.16e7 | – | 1.67e7 | 2.16e7 |
| CG33120 | SID104181865 | 4.95e7 | – | – | 2.36e7 | – |
| CG1440 | SID104197707 | 3.98e7 | 3.73e7 | – | 1.70e7 | 1.62e7 |
| mRpL10 (mitochondrial ribosomal protein L10) | SID104180104 | 4.87e7 | – | – | 1.74e7 | – |
| RpLP1 (Ribosomal protein LP1) | SID104180575 | 1.97e7 | 2.64e7 | – | 1.16e7 | 1.24e7 |
| RpLP1 (Ribosomal protein LP1) | SID104201696 | 9.53e6 | 1.82e7 | – | 7.13e6 | 1.14e7 |
| Caper | SID104181929 | 3.61e7 | – | – | 1.80e7 | – |
| Osbp (Oxysterol binding protein) | SID104196571 | 4.32e7 | 4.48e7 | – | 2.01e7 | 2.06e7 |
| CG9173 | SID104188427 | 3.30e7 | 4.24e7 | – | 1.65e7 | 1.84e7 |
| asun (asunder) | SID104196525 | 3.63e7 | 2.76e7 | – | 1.74e7 | 1.25e7 |
| CycG (Cyclin G) | SID104194116 | 3.13e7 | 4.22e7 | – | 1.51e7 | 2.08e7 |
| CycG (Cyclin G) | SID104202702 | 2.82e7 | 3.78e7 | – | 1.72e7 | 1.68e7 |
| CG12672 | SID104199274 | 3.22e7 | 4.28e7 | – | 1.61e7 | 1.79e7 |
| Icmt (Isoprenylcysteine carboxyl methyltransferase) | SID104189626 | 3.01e7 | 4.63e7 | – | 1.56e7 | 2.09e7 |
| CG14000 | SID104182124 | 3.35e7 | 3.15e7 | – | 1.63e7 | 1.56e7 |
| CG1172 + Or83a | SID104192149 | 3.20e7 | 3.14e7 | – | 1.47e7 | 1.34e7 |
| CG9757 | SID104196349 | 3.54e7 | 4.69e7 | – | 1.71e7 | 6.55e7 |
| CG9757 | SID104201383 | 3.39e7 | 3.17e7 | – | 1.86e7 | 1.63e7 |
| Nup58 (Nucleoporin 58kD) | SID104196027 | 3.22e7 | 2.84e7 | – | 6.60e7 | 1.40e7 |
| CG31898 | SID104180811 | 4.33e7 | 4.78e7 | – | 2.19e7 | 2.27e7 |
| Arp1 (Actin-related protein 1) | SID104193910 | 3.83e7 | 3.64e7 | – | 1.99e7 | 1.91e7 |
| CG4892 | SID104181729 | 4.89e7 | 3.90e7 | – | 2.20e7 | 1.72e7 |
| CG18766 | SID104195728 | 3.53e7 | 4.54e7 | – | 1.63e7 | 2.06e7 |
| Prosbeta6 (Proteasome beta6 subunit) | SID104191048 | 1.68e7 | 1.34e7 | – | 1.48e7 | 8.74e6 |
| CG32181 | SID104202043 | 4.69e7 | 4.00e7 | – | 2.85e7 | 1.77e7 |
| CG42822 | SID104193024 | 4.28e7 | 2.46e7 | – | 1.91e7 | 1.19e7 |
| osy (oskyddad) | SID104194695 | 2.82e7 | 5.79e7 | – | 1.59e7 | 2.47e7 |
| osy (oskyddad) | SID104195771 | 2.80e7 | 5.32e7 | – | 1.55e7 | 2.48e7 |
| osy (oskyddad) | SID104195773 | 2.68e7 | 3.33e7 | – | 1.23e7 | 1.59e7 |
| Naa15-16 (N(alpha)-acetyltransferase 15/16) | SID104199232 | 6.06e7 | 3.52e7 | – | 2.83e7 | 1.75e7 |
| Naa15-16 (N(alpha)-acetyltransferase 15/16) | SID104202205 | 2.90e7 | 4.27e7 | – | 1.47e7 | 1.89e7 |
| CG9981 | SID104200017 | 2.23e7 | 2.41e7 | – | 1.20e7 | 1.17e7 |
| TotZ (Turandot Z) | SID104193242 | 3.87e7 | 3.76e7 | – | 1.98e7 | 1.78e7 |
| ng2 (new glue 2) | SID104198595 | 5.46e7 | 5.17e7 | 2.1 | 2.65e7 | 2.15e7 |
| CG4372 | SID104184258 | 4.10e7 | 5.94e7 | – | 2.05e7 | 2.52e7 |

An excerpt from above, showing only “calcium entry signal, replicate 1 (fluorescence units)”:
Mgat3 [SID104181097]: 4.86e7
Adi1 (Acireductone dioxygenase 1) [SID104190737]: 2.38e7
Adi1 (Acireductone dioxygenase 1) [SID104201215]: 2.49e7
Lon (Lon protease) [SID104190841]: 2.34e7
Nmd3 (Nonsense-mediated mRNA 3) [SID104198479]: 2.73e7
Nmd3 (Nonsense-mediated mRNA 3) [SID104202193]: 2.63e7
pinta [SID104194490]: 3.40e7
Obp18a (Odorant-binding protein 18a) [SID104199528]: 5.61e7
Rh6 (Rhodopsin 6) [SID104196615]: 2.36e7
